# Measured values from patent publication US20020082410.
# Sequences of proteins named here, by UniProt entry; tags and fusion partners are left off. A line that says so, or that is headed by a name, gives the form on record, which may keep a tag or linker.
# UniProt P52946, other isoform, or with tags, fused parts or gaps: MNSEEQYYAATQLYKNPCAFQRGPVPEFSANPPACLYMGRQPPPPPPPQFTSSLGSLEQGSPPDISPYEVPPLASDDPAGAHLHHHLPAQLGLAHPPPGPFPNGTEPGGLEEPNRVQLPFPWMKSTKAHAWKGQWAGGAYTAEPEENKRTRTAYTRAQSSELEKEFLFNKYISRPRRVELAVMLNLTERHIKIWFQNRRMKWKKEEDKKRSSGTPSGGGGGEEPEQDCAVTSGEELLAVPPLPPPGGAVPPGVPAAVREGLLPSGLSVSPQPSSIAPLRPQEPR
# Results from cells or extracts need not show a direct contact.
# Target: Ipf1 (endogenous, nuclear extract) (Mus musculus) (UniProt P52946)
# Assay: EMSA
# Details: binding blocked by anti-Ipf1 antiserum and supershifted by affinity purified antibodies; protein in an extract
sequence,measurement,value
GCCCTTAATGGGCCAAACGGCA (double strand) [P1 wild-type insulin promoter element],binding result,binds
